# Source: PubChem BioAssay AID504804 (Drosophila RNAi Screening Center, 2011)
# Screen: 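Fly genes whose loss lessens doxorubicin-driven cell death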 (primary screen)
# Cells: Drosophila Kc cells
# Reagents: long dsRNA against Drosophila genes, 0.5 µg dsRNA per well
# Duration: 96 h (48 h knock-down, then 48 h drug)
# Challenge: doxorubicin 5 µg/ml for 48 h, added 48 h after dsRNA
# Detection: 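Luminescent ATP counts per replicate, not normalised, reflecting viable cells after 48 h dsRNA knock-down followed by 48 h of 5 µg/ml doxorubicin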
# Reading the numbers: raw ATP luminescence: higher = more viable cells, protection from doxorubicin
# Call rule: 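Active when both duplicate wells lie at least 2 SD above the plate mean and protection is confirmed by rescreening and independent dsRNAs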
# In all, the deposit lists about 19,000 reagents; shown is a random part of those with a known target gene and a result. In the full data, 47 (0.25%) got an active call. 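Signals are raw, not normalised; exact z-scores behind calls not deposited; actives needed confirmation, so some wells reaching 2 SD are inactive.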 The numbers tell different reagents against one gene apart. Names joined by + are all predicted targets of the reagent.
gene,reagent,"raw ATP luminescence, replicate 1","raw ATP luminescence, replicate 2",outcome
bin3,1,31790,36153,inactive
CG14419,1,63300,60300,inactive
CG15256,1,74727,67513,inactive
puf,1,29460,28210,inactive
t-Grip128,1,1.53e5,1.58e5,inactive
CG6108 (retired record),1,73513,77393,inactive
Ldsdh1,1,49600,48110,inactive
CG18549,1,60890,43117,inactive
GrlHz,1,81647,52920,inactive
MED15,1,66147,42163,inactive
Suv3,1,38883,34223,inactive
Ppn,1,57030,44950,inactive
CG12084,1,94340,56390,inactive
spag,1,40887,55310,inactive
Rsph1,1,83850,79510,inactive
spas,1,43650,75290,inactive
CG4836,1,41483,46870,inactive
CG2790,1,57070,49427,inactive
Coq4 + Gorab + frc,1,42470,29860,inactive
CG2493,1,95523,75417,inactive
CG7179,1,28553,21027,inactive
CG14357,1,81640,80010,inactive
CG30496,1,69277,45913,inactive
mRpL22,1,3.53e5,2.61e5,inactive
scat,1,85763,49747,inactive
Nubp2,1,68790,54613,inactive
Unc-76,1,53800,58160,inactive
Unc-76,2,49780,49900,inactive
holn1,1,1.03e5,62683,inactive
Det,1,81940,70820,inactive
CG15484,1,66490,62760,inactive
ms(2)35Ci,1,2.22e5,2.34e5,inactive
pst,1,52270,42880,inactive
Ssdp,1,63660,68760,inactive
CG15023,1,69957,65733,inactive
eag,1,2.71e5,2.56e5,inactive
eag,2,4.07e5,3.06e5,inactive
stck,1,68837,50313,inactive
wrd,1,18290,21300,inactive
wrd,2,52980,72030,inactive
Trpgamma,1,50903,71997,inactive
Arpc1,1,66487,53590,inactive
Burs,1,45640,50230,inactive
phtm,1,2.15e5,2.53e5,inactive
Sardh,1,55307,82887,inactive
Non2,1,71597,55797,inactive
KCNQ,1,30693,92303,inactive
KCNQ,2,49847,86243,inactive
Decay,1,93410,76850,inactive
CG32225,1,74127,52430,inactive
Kdm4B,1,53083,52860,inactive
CG11655,1,2.39e5,2.87e5,inactive
CG3726,1,72297,93300,inactive
Taf11,1,38077,71317,inactive
NimB1,1,80687,59733,inactive
Nelf-A,1,46523,32127,inactive
CG14297,1,33880,20720,inactive

9 of these entries, set out differently.
{"gene": "MED15", "reagent": 1, "raw ATP luminescence, replicate 1": 66147, "raw ATP luminescence, replicate 2": 42163, "outcome": "inactive"}
{"gene": "Suv3", "reagent": 1, "raw ATP luminescence, replicate 1": 38883, "raw ATP luminescence, replicate 2": 34223, "outcome": "inactive"}
{"gene": "Ppn", "reagent": 1, "raw ATP luminescence, replicate 1": 57030, "raw ATP luminescence, replicate 2": 44950, "outcome": "inactive"}
{"gene": "CG12084", "reagent": 1, "raw ATP luminescence, replicate 1": 94340, "raw ATP luminescence, replicate 2": 56390, "outcome": "inactive"}
{"gene": "spag", "reagent": 1, "raw ATP luminescence, replicate 1": 40887, "raw ATP luminescence, replicate 2": 55310, "outcome": "inactive"}
{"gene": "Rsph1", "reagent": 1, "raw ATP luminescence, replicate 1": 83850, "raw ATP luminescence, replicate 2": 79510, "outcome": "inactive"}
{"gene": "spas", "reagent": 1, "raw ATP luminescence, replicate 1": 43650, "raw ATP luminescence, replicate 2": 75290, "outcome": "inactive"}
{"gene": "CG4836", "reagent": 1, "raw ATP luminescence, replicate 1": 41483, "raw ATP luminescence, replicate 2": 46870, "outcome": "inactive"}
{"gene": "CG2790", "reagent": 1, "raw ATP luminescence, replicate 1": 57070, "raw ATP luminescence, replicate 2": 49427, "outcome": "inactive"}
